Experimental data: patent US5455348A, “2-pyrrolidinones, pharmaceutical compositions containing these compounds and processes for preparing them” (Thomae; Karl, priority 1991, dated 1995)
For at least one compound, name, drawing or mass did not settle the structure.

Molecular target: fibrinogen binding to human thrombocytes
Assay: Fibrinogen binding to human thrombocytes
Details: gel-filtered human platelets, 125I fibrinogen, ADP, 20 minutes, ambient temperature; read-out: Fibrinogen-binding test IC50

## N=C(N)c1ccc(-c2ccc(OC[C@@H]3C[C@@H](CC(=O)O)C(=O)N3)cc2)nc1 [Example 1, (3S,5S)-5-[[4-(5-amidino-2-pyridyl)phenyl]oxymethyl]-3-carboxymethyl-2-pyrrolidinone]
  IC50: 10 nM
